Experimental data reported in paper PMC9279627 (Acta Pharmaceutica Sinica. B, 2021).

Amino acid sequences for entries named in this document (tags omitted).
UniProt P11712, whole entry: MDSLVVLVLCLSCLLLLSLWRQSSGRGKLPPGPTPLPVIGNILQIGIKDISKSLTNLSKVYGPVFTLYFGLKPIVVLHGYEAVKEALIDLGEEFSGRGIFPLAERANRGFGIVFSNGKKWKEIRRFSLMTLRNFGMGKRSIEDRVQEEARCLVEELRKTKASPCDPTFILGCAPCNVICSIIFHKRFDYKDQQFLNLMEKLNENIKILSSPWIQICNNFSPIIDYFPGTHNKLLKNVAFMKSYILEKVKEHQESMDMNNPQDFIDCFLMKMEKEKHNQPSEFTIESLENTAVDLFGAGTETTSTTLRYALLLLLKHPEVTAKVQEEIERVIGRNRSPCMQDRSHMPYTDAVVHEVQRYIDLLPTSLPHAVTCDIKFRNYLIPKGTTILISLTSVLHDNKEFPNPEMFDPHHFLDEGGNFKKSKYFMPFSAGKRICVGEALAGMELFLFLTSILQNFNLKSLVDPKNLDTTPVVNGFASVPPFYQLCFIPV

Biological target: CYP2C9 (Homo sapiens, UniProt P11712)
Assay type: biochemical

Question: For `Clc1ccc(CSC(Cn2ccnc2)c2ccc(Cl)cc2Cl)cc1` (centres unmarked) [sulconazole], which “Concentration-dependent inhibitory effect toward CYP2C9” value (0.1, 0.5, 1, 10 and 20 μmol/L, DDAM, Fig. 4B) is on record?
Answer: significant inhibitory effect

Question: And the “Modulation of CYP2C9 activity in visual high-throughput screen” value (clinical drugs 10 μmol/L, DDAM 10 μmol/L, HLM, 96-well microplate)?
Answer: strong inhibitors
